Data reported in the supplement of paper PMC4604168 (melanoma cell lines).
The list shows a part of the results. Single values are uncertain, as repeats are few or missing.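 Imaging used 1,536-well plates; nuclei positive for cleaved PARP by antibody were divided by total DNA-stained nuclei to yield the apoptosis fraction. Doses for screening kept most cells viable, and cell lines differ markedly in resting and induced cleaved-PARP levels.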

System: UACC62
Assay: cleaved PARP positive nuclei fraction relative to DMSO control; melanoma cells; higher = more apoptosis
Conditions: library dose: low library concentration; 72 h

| Compound | cleaved PARP positive nuclei fraction |
| --- | --- |
| COc1ccc(C2=N[C@@H](c3ccc(Cl)cc3)[C@@H](c3ccc(Cl)cc3)N2C(=O)N2CCNC(=O)C2)c(OC(C)C)c1 [Nutlin-3] + COc1ccc2c(c1)CCC1C2CCC2(C)C(NCCCCCCN3C(=O)C=CC3=O)CCC12 [U73122] (first compound 0.1 µM, partner dose 0.4 µM) | 61% |
| CS(=O)(=O)c1ccc(C(=O)Nc2ccc(Cl)c(-c3ccccn3)c2)c(Cl)c1 [vismodegib] + Cc1cc(N2CCOCC2)cc2[nH]c(-c3c(NC[C@@H](O)c4cccc(Cl)c4)cc[nH]c3=O)nc12 [BMS536924] (first compound 1 µM, partner dose 0.2 µM) | 158% |
| CC1(C)CCC(c2ccc(Cl)cc2)=C(CN2CCN(c3ccc(C(=O)NS(=O)(=O)c4ccc(N[C@H](CCN5CCOCC5)CSc5ccccc5)c(S(=O)(=O)C(F)(F)F)c4)cc3)CC2)C1 + Cc1cc(N2CCOCC2)cc2[nH]c(-c3c(NC[C@@H](O)c4cccc(Cl)c4)cc[nH]c3=O)nc12 [BMS536924] (first compound 0.4 µM, partner dose 0.2 µM) | 13.5% |
| CC(=O)O[C@@]12CO[C@@H]1C[C@H](O)[C@@]1(C)C(=O)[C@H](O)C3=C(C)[C@@H](OC(=O)[C@H](O)[C@@H](NC(=O)OC(C)(C)C)c4ccccc4)C[C@@](O)([C@@H](OC(=O)c4ccccc4)[C@H]21)C3(C)C [Docetaxel] + Cc1ccc(NC(=O)c2cccc(N(C)C)c2)cc1NC(=O)c1ccc(O)cc1 [ZM336372] (first compound 0.0001 µM, partner dose 2 µM) | 201% |
| C[C@@H](N)c1ccc(C(=O)Nc2ccnc3[nH]ccc23)cc1 + COc1cc(N2CCC(N3CCN(C)CC3)CC2)ccc1Nc1ncc(Cl)c(Nc2ccccc2S(=O)(=O)C(C)C)n1 [NVP-TAE684] (first compound 0.4 µM, partner dose 0.08 µM) | 76.2% |
| CCN(CC)CCNC(=O)c1c(C)[nH]c(/C=C2\C(=O)Nc3ccc(F)cc32)c1C [sunitinib] + O=c1cc(-c2cccc3c2Sc2ccccc2S3)oc(N2CCOCC2)c1 [KU55933] (first compound 0.4 µM, partner dose 1 µM) | 104% |
| C[C@]1(O)C[C@@H](c2nc(-c3ccc4ccc(-c5ccccc5)nc4c3)c3c(N)nccn32)C1 + O=C(Nc1ccccc1)c1cc([N+](=O)[O-])ccc1Cl [GW9662] (first compound 0.4 µM, partner dose 2 µM) | 151% |
| CCCCCCCCc1ccc(CCC(N)(CO)CO)cc1 [fingolimod] + NCC(=O)Nc1ccc(-n2nc(C(F)(F)F)cc2-c2ccc3c(ccc4ccccc43)c2)cc1 [OSU03012] (first compound 2 µM, partner dose 1 µM) | 62.3% |
| CC1(C)CCC(c2ccc(Cl)cc2)=C(CN2CCN(c3ccc(C(=O)NS(=O)(=O)c4ccc(N[C@H](CCN5CCOCC5)CSc5ccccc5)c(S(=O)(=O)C(F)(F)F)c4)cc3)CC2)C1 + CO[C@@H]1[C@H](N(C)C(=O)c2ccccc2)C[C@H]2O[C@]1(C)n1c3ccccc3c3c4c(c5c6ccccc6n2c5c31)C(=O)NC4 [Midostaurin] (first compound 0.4 µM, partner dose 0.08 µM) | 91% |
| C[C@]1(O)C[C@@H](c2nc(-c3ccc4ccc(-c5ccccc5)nc4c3)c3c(N)nccn32)C1 + Cc1cc([N+](=O)[O-])ccc1NS(=O)(=O)c1cc(Cl)ccc1Cl [FH535] (first compound 0.4 µM, partner dose 1 µM) | 1170% |
